From PMC6636010
Results are given in words; binding and its absence hold for the method and conditions named. In cells and extracts the contact can be indirect. Some results given as binding are weak or reduced against the parent protein; the word gives no strength.

Chains of the proteins cited; added tags and fusions are not shown.
UniProt P17096: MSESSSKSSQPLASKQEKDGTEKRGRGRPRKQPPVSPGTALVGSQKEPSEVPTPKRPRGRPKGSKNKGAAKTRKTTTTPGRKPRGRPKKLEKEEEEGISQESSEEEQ

Target: High Mobility Group A1 (HMGA1) (human (endogenous in MDA-MB-231)) (UniProt P17096)
Assay: co-IP; endogenous proteins; 250 μg MDA-MB-231 lysate with 1 μg α-HMGA1 (α-GFP as negative control) in IP buffer (25 mM Tris/HCl pH 7.4, 0.5% NP40, 125 mM NaCl) O/N at 4 °C, A/G proteins agarose beads 2 h at 4 °C; western blot with α-HMGA1 and α-FOXM1

B1: Forkhead box M1 (FOXM1) (protein, UniProt Q08050 1-763)
chain: MKTSPRRPLILKRRRLPLPVQNAPSETSEEEPKRSPAQQESNQAEASKEVAESNSCKFPAGIKIINHPTMPNTQVVAIPNNANIHSIITALTAKGKESGSSGPNKFILISCGGAPTQPPGLRPQTQTSYDAKRTEVTLETLGPKPAARDVNLPRPPGALCEQKRETCADGEAAGCTINNSLSNIQWLRKMSSDGLGSRSIKQEMEEKENCHLEQRQVKVEEPSRPSASWQNSVSERPPYSYMAMIQFAINSTERKRMTLKDIYTWIEDHFPYFKHIAKPGWKNSIRHNLSLHDMFVRETSANGKVSFWTIHPSANRYLTLDQVFKPLDPGSPQLPEHLESQQKRPNPELRRNMTIKTELPLGARRKMKPLLPRVSSYLVPIQFPVNQSLVLQPSVKVPLPLAASLMSSELARHSKRVRIAPKVLLAEEGIAPLSSAGPGKEEKLLFGEGFSPLLPVQTIKEEEIQPGEEMPHLARPIKVESPPLEEWPSPAPSFKEESSHSWEDSSQSPTPRPKKSYSGLRSPTRCVSEMLVIQHRERRERSRSRRKQHLLPPCVDEPELLFSEGPSTSRWAAELPFPADSSDPASQLSYSQEVGGPFKTPIKETLPISSTPSKSVLPRTPESWRLTPPAKVGGLDFSPVQTSQGASDPLPDPLGLMDLSTTPLQSAPPLESPQRLLSSEPLDLISVPFGNSSPSDIDVPKPGSPEPQVSGLAANRSLTEGLVLDTMNDSLSKILLDISFPGLDEDPLGPDNINWSQFIPELQ
binding: binds
